# Earlier results in patent US20060205793A1, “Flupirtine preparation for the treatment of neurodegenerative diseases of the visual apparatus and diabetes mellitus” (priority 2003, published 2006).
# At least one structure is not confirmed: it was looked up by name or label, or the drawing left a doubt.
# Tested on: retinal ganglion cells
# Conditions: pressure in the eye 120 mm Hg for one hour, Nash et al., Brain Research 856 (2000)
smiles,measurement,value
CCOC(=O)Nc1ccc(NCc2ccc(F)cc2)nc1N [flupirtine],death of ganglion cells in the rat retina following ischaemia,might mitigate the death of ganglion cells in the rat retina
